# Experimental data from paper doi:10.1101/2025.02.15.25322241.
# Protein sequences, listed by entry. Tags and fused reporters are not part of them. Residues count along the entry.
# UniProt P25705, residues 44-553: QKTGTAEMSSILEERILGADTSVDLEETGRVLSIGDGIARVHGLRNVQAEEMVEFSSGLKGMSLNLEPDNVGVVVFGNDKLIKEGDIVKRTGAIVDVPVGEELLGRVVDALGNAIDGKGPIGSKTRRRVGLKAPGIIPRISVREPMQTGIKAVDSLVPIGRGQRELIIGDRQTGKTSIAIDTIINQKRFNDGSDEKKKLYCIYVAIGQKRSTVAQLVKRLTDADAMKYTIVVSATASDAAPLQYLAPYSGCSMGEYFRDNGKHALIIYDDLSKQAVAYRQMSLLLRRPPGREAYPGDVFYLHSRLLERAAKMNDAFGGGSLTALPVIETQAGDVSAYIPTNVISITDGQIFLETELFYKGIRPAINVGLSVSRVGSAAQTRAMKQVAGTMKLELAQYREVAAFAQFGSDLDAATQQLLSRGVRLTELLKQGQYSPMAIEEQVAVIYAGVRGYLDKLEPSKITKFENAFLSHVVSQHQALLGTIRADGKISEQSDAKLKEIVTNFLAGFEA
# UniProt P27824, residues 21-592: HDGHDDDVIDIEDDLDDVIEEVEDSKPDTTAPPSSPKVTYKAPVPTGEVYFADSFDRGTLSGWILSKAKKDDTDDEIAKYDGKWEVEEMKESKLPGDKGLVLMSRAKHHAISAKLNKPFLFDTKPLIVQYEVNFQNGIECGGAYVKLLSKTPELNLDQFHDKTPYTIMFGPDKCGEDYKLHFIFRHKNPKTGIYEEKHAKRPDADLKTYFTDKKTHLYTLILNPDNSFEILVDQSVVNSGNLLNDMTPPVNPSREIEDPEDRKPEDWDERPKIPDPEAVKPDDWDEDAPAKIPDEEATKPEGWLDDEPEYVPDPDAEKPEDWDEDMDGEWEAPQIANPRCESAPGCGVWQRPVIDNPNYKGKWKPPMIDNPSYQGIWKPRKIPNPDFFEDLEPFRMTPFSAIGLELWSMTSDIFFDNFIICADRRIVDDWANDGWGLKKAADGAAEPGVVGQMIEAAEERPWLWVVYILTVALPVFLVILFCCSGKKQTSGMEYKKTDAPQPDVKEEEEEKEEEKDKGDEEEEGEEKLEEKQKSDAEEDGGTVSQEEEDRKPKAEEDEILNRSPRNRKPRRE
# UniProt O75381: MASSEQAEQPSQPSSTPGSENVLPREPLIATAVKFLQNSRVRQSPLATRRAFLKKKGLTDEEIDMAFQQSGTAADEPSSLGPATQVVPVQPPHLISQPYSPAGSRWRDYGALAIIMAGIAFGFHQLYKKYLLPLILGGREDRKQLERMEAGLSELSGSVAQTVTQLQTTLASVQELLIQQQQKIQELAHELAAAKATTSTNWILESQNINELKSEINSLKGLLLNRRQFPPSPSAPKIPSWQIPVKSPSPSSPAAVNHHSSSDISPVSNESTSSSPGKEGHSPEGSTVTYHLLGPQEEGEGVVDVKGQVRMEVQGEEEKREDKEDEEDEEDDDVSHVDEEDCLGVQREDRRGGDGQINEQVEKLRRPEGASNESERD
# These are yes or no findings as the source states them, for the method shown. Binding seen in cells or lysates may run through a third protein. Here binding means that the protein was enriched with, or labelled near, the bait; the list need not be complete. A no says only that the protein was not detected with the bait. Where a sequence is shown, tags or fusion partners need not be part of it.
# T1: V5-tagged APOL1-G0 fused to turboID (human) (UniProt O14791)
# T1 sequence: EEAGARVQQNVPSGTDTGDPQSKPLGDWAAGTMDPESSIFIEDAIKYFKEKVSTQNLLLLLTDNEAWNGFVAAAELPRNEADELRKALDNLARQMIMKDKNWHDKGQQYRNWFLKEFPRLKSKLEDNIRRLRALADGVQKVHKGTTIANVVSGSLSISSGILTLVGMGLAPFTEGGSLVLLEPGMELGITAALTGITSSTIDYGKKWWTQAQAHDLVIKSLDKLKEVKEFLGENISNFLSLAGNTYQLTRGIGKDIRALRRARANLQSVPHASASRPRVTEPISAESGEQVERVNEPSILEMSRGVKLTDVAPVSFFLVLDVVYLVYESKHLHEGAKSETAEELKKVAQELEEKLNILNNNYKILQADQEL
# Biological target: T1, V5-tagged APOL1-G0 fused to turboID (human)
# Experiment: proximity labelling
row,binding,Molecule
1,no binding,"BCAP31 (protein, UniProt P51572 1-246) MSLQWTAVATFLYAEVFVVLLLCIPFISPKRWQKIFKSRLVELLVSYGNTFFVVLIVILVLLVIDAVREIRKYDDVTEKVNLQNNPGAMEHFHMKLFRAQRNLYIAGFSLLLSFLLRRLVTLISQQATLLASNEAFKKQAESASEAAKKYMEENDQLKKGAAVDGGKLDVGNAEVKLEEENRSLKADLQKLKDELASTKQKLEKAENQVLAMRKQSEGLTKEYDRLLEEHAKLQAAVDGPMDKKEE"
2,no binding,"GM130 (protein, UniProt Q08379 1-1002) MWPQPRLPPRPAMSEETRQSKLAAAKKKLREYQQRNSPGVPTGAKKKKKIKNGSNPETTTSGGCHSPEDTPKDNAATLQPSDDTVLPGGVPSPGASLTSMAASQNHDADNVPNLMDETKTFSSTESLRQLSQQLNGLVCESATCVNGEGPASSANLKDLESRYQQLAVALDSSYVTNKQLNITIEKLKQQNQEITDQLEEEKKECHQKQGALREQLQVHIQTIGILVSEKAELQTALAHTQHAARQKEGESEDLASRLQYSRRRVGELERALSAVSTQQKKADRYNKELTKERDALRLELYKNTQSNEDLKQEKSELEEKLRVLVTEKAGMQLNLEELQKKLEMTELLLQQFSSRCEAPDANQQLQQAMEERAQLEAHLGQVMESVRQLQMERDKYAENLKGESAMWRQRMQQMSEQVHTLREEKECSMSRVQELETSLAELRNQMAEPPPPEPPAGPSEVEQQLQAEAEHLRKELEGLAGQLQAQVQDNEGLSRLNREQEERLLELERAAELWGEQAEARRQILETMQNDRTTISRALSQNRELKEQLAELQSGFVKLTNENMEITSALQSEQHVKRELGKKLGELQEKLSELKETVELKSQEAQSLQQQRDQYLGHLQQYVAAYQQLTSEKEVLHNQLLLQTQLVDQLQQQEAQGKAVAEMARQELQETQERLEAATQQNQQLRAQLSLMAHPGEGDGLDREEEEDEEEEEEEAVAVPQPMPSIPEDLESREAMVAFFNSAVASAEEEQARLRGQLKEQRVRCRRLAHLLASAQKEPEAAAPAPGTGGDSVCGETHRALQGAMEKLQSRFMELMQEKADLKERVEELEHRCIQLSGETDTIGEYIALYQSQRAVLKERHREKEEYISRLAQDKEEMKVKLLELQELVLRLVGDRNEWHGRFLAAAQNPADEPTSGAPAPQELGAANQQGDLCEVSLAGSVEPAQGEAREGSPRDNPTAQQIMQLLREMQNPRERPGLGSNPCIPFFYRADENDEVKITVI"
3,no binding,"HXK2 (protein, UniProt P52789 1-917) MIASHLLAYFFTELNHDQVQKVDQYLYHMRLSDETLLEISKRFRKEMEKGLGATTHPTAAVKMLPTFVRSTPDGTEHGEFLALDLGGTNFRVLWVKVTDNGLQKVEMENQIYAIPEDIMRGSGTQLFDHIAECLANFMDKLQIKDKKLPLGFTFSFPCHQTKLDESFLVSWTKGFKSSGVEGRDVVALIRKAIQRRGDFDIDIVAVVNDTVGTMMTCGYDDHNCEIGLIVGTGSNACYMEEMRHIDMVEGDEGRMCINMEWGAFGDDGSLNDIRTEFDQEIDMGSLNPGKQLFEKMISGMYMGELVRLILVKMAKEELLFGGKLSPELLNTGRFETKDISDIEGEKDGIRKAREVLMRLGLDPTQEDCVATHRICQIVSTRSASLCAATLAAVLQRIKENKGEERLRSTIGVDGSVYKKHPHFAKRLHKTVRRLVPGCDVRFLRSEDGSGKGAAMVTAVAYRLADQHRARQKTLEHLQLSHDQLLEVKRRMKVEMERGLSKETHASAPVKMLPTYVCATPDGTEKGDFLALDLGGTNFRVLLVRVRNGKWGGVEMHNKIYAIPQEVMHGTGDELFDHIVQCIADFLEYMGMKGVSLPLGFTFSFPCQQNSLDESILLKWTKGFKASGCEGEDVVTLLKEAIHRREEFDLDVVAVVNDTVGTMMTCGFEDPHCEVGLIVGTGSNACYMEEMRNVELVEGEEGRMCVNMEWGAFGDNGCLDDFRTEFDVAVDELSLNPGKQRFEKMISGMYLGEIVRNILIDFTKRGLLFRGRISERLKTRGIFETKFLSQIESDCLALLQVRAILQHLGLESTCDDSIIVKEVCTVVARRAAQLCGAGMAAVVDRIRENRGLDALKVTVGVDGTLYKLHPHFAKVMHETVKDLAPKCDVSFLQSEDGSGKGAALITAVACRIREAGQR"

# Biological target: T1, V5-tagged APOL1-G0 fused to turboID (human)
# Experiment: proximity labelling
# Remark: another data set of the same source
row,binding,Molecule
1,binds,ATP5A (from UniProt P25705 44-553)
2,binds,Calnexin (from UniProt P27824 21-592)
3,binds,PEX14 (from UniProt O75381 1-377)
4,no binding,RAB5 (human (endogenous in human podocytes))
